From PMC12349880
Results are given in words; binding and its absence hold for the method and conditions named. In cells and extracts the contact can be indirect.

Amino acid sequences for entries named in this document (tags omitted).
UniProt Q01094: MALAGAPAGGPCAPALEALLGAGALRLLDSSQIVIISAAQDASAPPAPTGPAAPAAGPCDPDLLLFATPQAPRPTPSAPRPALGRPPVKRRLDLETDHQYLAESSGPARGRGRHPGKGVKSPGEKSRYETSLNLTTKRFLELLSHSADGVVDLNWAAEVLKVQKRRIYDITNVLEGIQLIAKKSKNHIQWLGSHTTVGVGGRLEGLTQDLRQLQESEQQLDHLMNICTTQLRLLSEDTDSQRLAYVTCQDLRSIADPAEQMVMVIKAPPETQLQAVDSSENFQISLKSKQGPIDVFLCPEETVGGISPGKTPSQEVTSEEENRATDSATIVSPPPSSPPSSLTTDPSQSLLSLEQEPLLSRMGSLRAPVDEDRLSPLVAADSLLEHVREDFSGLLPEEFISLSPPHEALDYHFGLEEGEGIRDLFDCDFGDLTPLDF
UniProt P03206: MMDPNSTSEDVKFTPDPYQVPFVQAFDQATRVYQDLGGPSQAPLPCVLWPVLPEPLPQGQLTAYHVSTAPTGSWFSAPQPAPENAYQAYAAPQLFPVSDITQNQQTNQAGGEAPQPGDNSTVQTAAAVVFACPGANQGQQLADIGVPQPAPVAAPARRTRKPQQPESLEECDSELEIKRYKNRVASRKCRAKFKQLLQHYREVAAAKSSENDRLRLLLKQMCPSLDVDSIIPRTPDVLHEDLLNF

Target: flag-tagged E2F1 (UniProt Q01094)
Experiment: co-IP; HEK293 cells transiently transfected with myc-tagged BZLF1 with or without flag-tagged E2F1; lysed in RIPA buffer with protease inhibitors; precleared; immunoprecipitated with 1 ug anti-flag mouse monoclonal antibody overnight at 4 C; Protein-A/G magnetic beads; washed three times with RIPA buffer; immunoblot

Q: With “myc-tagged BZLF1 (from UniProt P03206 1-245)” as the substance, how does the binding read?
A: no binding
